PubChem BioAssay AID493246 | Drosophila RNAi Screening Center | 2011

Assay: 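Genes fly cells need to grow and stay alive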 (primary screen)
System: Drosophila Kc and S2R+ cells
Reagent: long dsRNA against Drosophila genes
Measurement: 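Raw, unnormalised count of remaining cells in each well; per-plate z-scores of cell number underlie the calls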
Direction: Kc cell number and S2R+ cell number: higher = more cells remaining
Active means: 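Active when the per-plate z-score of cell number is 3 or more in the direction of fewer cells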
In all, the deposit lists about 21,000 reagents; below is an unselected part of those that have a named target and a result. Over the whole deposit, 429 (2%) are marked active. 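Values are raw and not normalised between plates; calls rest on per-plate z-scores that were not deposited.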 Entries without a mark were called inactive. A plus sign joins genes that one reagent is predicted to hit. Not stated in the record: the amount of reagent, the time to read-out.

no.	Target gene	dsRNA	Kc cell number, rep 1	Kc cell number, rep 2	S2R+ cell number, rep 1	S2R+ cell number, rep 2
1	mtd	DRSC12131	1.57e6	1.61e6	1.16e6	1.23e6
2	mtd	DRSC12380	1.63e6	1.68e6	1.17e6	1.27e6
3	mtd	DRSC12381	1.66e6	1.90e6	1.20e6	1.29e6
4	CG7985	DRSC14128	1.58e6	1.69e6	1.24e6	1.32e6
5	CG12608	DRSC19472	5.54e5		8.05e5	
6	CG1638	DRSC15132	1.61e6	1.75e6	1.04e6	1.20e6
7	CG9003	DRSC07317	1.52e6	1.51e6	1.18e6	1.34e6
8	CG9338	DRSC03213	1.50e6	1.54e6	1.05e6	1.17e6
9	Prosalpha4T1	DRSC16800	1.24e6	1.33e6	9.48e5	1.04e6
10	TwdlX	DRSC19151	1.26e6	1.55e6	1.12e6	1.18e6
11	Flo1	DRSC07427	1.37e6	1.48e6	1.17e6	1.16e6
12	Akap200	DRSC01864	1.17e6	1.31e6	5.21e5	5.30e5
13	CG4882	DRSC04495	1.46e6	1.53e6	1.21e6	1.38e6
14	CG31224	DRSC16290	1.68e6	1.80e6	1.34e6	1.44e6
15	CG8001	DRSC08611	1.39e6	1.45e6	1.15e6	1.25e6

5 entries from above, reformatted:
| Target gene | dsRNA | Kc cell number, rep 1 | Kc cell number, rep 2 | S2R+ cell number, rep 1 | S2R+ cell number, rep 2 |
| --- | --- | --- | --- | --- | --- |
| Flo1 | DRSC07427 | 1.37e6 | 1.48e6 | 1.17e6 | 1.16e6 |
| Akap200 | DRSC01864 | 1.17e6 | 1.31e6 | 5.21e5 | 5.30e5 |
| CG4882 | DRSC04495 | 1.46e6 | 1.53e6 | 1.21e6 | 1.38e6 |
| CG31224 | DRSC16290 | 1.68e6 | 1.80e6 | 1.34e6 | 1.44e6 |
| CG8001 | DRSC08611 | 1.39e6 | 1.45e6 | 1.15e6 | 1.25e6 |

The list goes on.
no.	Target gene	dsRNA	Kc cell number, rep 1	Kc cell number, rep 2	S2R+ cell number, rep 1	S2R+ cell number, rep 2
16	SPR	DRSC17390	1.56e6	1.70e6	1.07e6	1.11e6
17	SPR	DRSC17886	1.67e6	1.62e6	1.04e6	1.20e6
18	SPR	DRSC18114	1.58e6	1.61e6	1.02e6	1.10e6
19	Aladin	DRSC18121	5.80e5		9.15e5	
20	fabp + sea	DRSC16114	1.48e6	1.52e6	1.28e6	1.30e6
21	fabp + sea	DRSC16115	1.45e6	1.51e6	1.31e6	1.33e6
22	CG44774	DRSC18342	1.60e6	1.58e6	1.09e6	1.25e6
23	CR34254	DRSC09562	1.58e6	1.68e6	1.11e6	1.32e6
24	bip1	DRSC11327	1.37e6	1.47e6	1.35e6	1.24e6
25	KdelR	DRSC03353	1.22e6	1.36e6	1.13e6	1.22e6
26	SC35	DRSC02502	1.40e6	1.42e6	9.61e5	1.10e6
27	SC35	DRSC03425	1.46e6	1.56e6	1.26e6	1.35e6
28	CG15543	DRSC15081	1.63e6	1.67e6	1.03e6	1.21e6
29	Cox17	DRSC20145	1.79e6	1.76e6	1.16e6	1.30e6
30	Chmp1	DRSC10401	1.52e6	1.61e6	1.30e6	1.27e6
31	CG31823	DRSC01887	1.54e6	1.62e6	1.25e6	1.40e6
32	chif	DRSC03508	1.43e6	1.46e6	1.41e6	1.47e6
33	kst	DRSC08719	1.33e6	1.48e6	1.11e6	1.06e6
34	Glg1	DRSC11815	1.48e6	1.52e6	1.28e6	1.35e6
35	Glg1	DRSC11816	1.61e6	1.87e6	1.24e6	1.33e6
36	Glg1	DRSC11817	1.68e6	1.75e6	1.44e6	1.52e6
37	Alp5	DRSC14269	1.57e6	1.67e6	1.22e6	1.26e6
38	Tsp33B	DRSC02418	1.69e6	1.61e6	1.21e6	1.37e6
39	CG11379	DRSC18629	1.62e6	1.61e6	1.10e6	1.24e6
40	RpL34a	DRSC15964	1.77e6	1.64e6	1.02e6	1.13e6
